Measured values from article PMC12040169 (PLOS Biology, 2025).
This is one part of the list.

test system: T1, CTL2-GFP (C. trachomatis L2/434/Bu, GFP-expressing); parameters: species or system HeLa; Intracellular C. trachomatis growth in HeLa cells, bulk GFP fluorescence relative to DMSO; settings: bulk GFP, single well; 28.5 h, 10 µM; inhibitor
T1 construct: L2/434/Bu, GFP-expressing

Compound	% of control remaining [%]
CC(C)C(CCC(=O)Nc1ccccc1[N+](=O)[O-])C(=O)O (stereo not shown) [CBK268356]	144.735
CC(C)(C)Nc1c(C2CCCN(C(=O)C3CC3)C2)nc2ccccn12 (stereo not shown) [CBK284759]	132.816
O=C(NCc1cccnc1)C(=O)Nc1cc2c3c(c1)CCC(=O)N3CCC2 [CBK287728]	99.639
CCCN(CC1CC1)C(=O)Cn1c([C@@H]2CCCO2)cc2cccnc21 [CBK282871]	91.1219
O=C(CNS(=O)(=O)c1ccc(Cl)c(Cl)c1Cl)N1CCOCC1 [CBK034472]	101.662
O=C1C=C(c2ccc([N+](=O)[O-])cc2)Nc2nonc2N1 [CBK261487]	108.809
Cc1cn2nc(N3CCN(S(=O)(=O)c4ccccc4[N+](=O)[O-])CC3)sc2n1 [CBK298288]	103.709
Cn1c(CSCc2ccccc2)nnc1SCC(=O)c1ccc(Br)cc1 [CBK266565]	140.932
Cc1ccc(C2CCCN2C(=O)c2ccc(=O)n(CC(=O)Nc3ccc(F)cc3)c2)cc1C (stereo not shown) [CBK286088]	99.0435
Cc1ccc2[nH]c(C3CCCCN3C(=O)c3cscn3)nc2c1 (stereo not shown) [CBK283999]	89.0479
COCCNc1nccnc1-c1cnc(OC)nc1OC [CBK088558]	102.127
Cc1ccc(C2(O)CCN(Cc3cn(C)nc3C)CC2)cc1 [CBK282753]	106.409
COc1ccccc1-c1nc2ccccn2c1CO [CBK173210]	106.736
Cn1c(=O)c2c(ncn2Cc2ccc(C#N)cc2)n(C)c1=O [CBK134217]	77.8198
O=S(=O)(Nc1cccc(Cl)c1)c1ccc(OC(F)(F)F)cc1 [CBK044769]	72.6764
O=[N+]([O-])c1ccc(O)c(C(C#Cc2ccccc2)N2CCOCC2)c1 (stereo not shown) [CBK262741]	124.272
COCCNC(=O)c1sc2ncn(CC(=O)Nc3ccccc3OC)c(=O)c2c1C [CBK071846]	115.521
Cn1c(Cc2nn(C)c(=O)c3ccccc23)nnc1SCC(=O)C(C)(C)C [CBK010985]	81.6258
CC(C)N(C)C(=O)Cc1csc(N)n1 [CBK014608]	177.947
Cc1ccc(OCC(=O)Nc2sc3c(c2C(N)=O)CCCCC3)c([N+](=O)[O-])c1 [CBK268148]	119.889
C=C(C)CN1CCN(C(=O)C2Cc3cc(Cl)ccc3O2)CC1 (stereo not shown) [CBK282639]	133.421
Oc1cccnc1CCc1ccccc1 [CBK026334C]	106.509
CC(=O)c1ccc(-c2cnc(N)c(N3CCN(C)CC3)n2)s1 [CBK063432]	195.188
O=C(CCc1ccc(O)c(O)c1)NNC(=S)Nc1ccccc1C(F)(F)F [CBK267104]	161.866
Cc1ccc(S(=O)(=O)N(CC(=O)Nc2ccc3c(c2)OCCO3)Cc2ccccc2F)cc1 [CBK265157]	103.343
CCC(C)(C)c1ccc(S(=O)(=O)Nc2ccc3ncsc3c2)cc1 [CBK043490]	69.4145

In another format: 14 of the compounds above.
Compound,% of control remaining [%]
CCCN(CC1CC1)C(=O)Cn1c([C@@H]2CCCO2)cc2cccnc21 [CBK282871],91.1219
O=C(CNS(=O)(=O)c1ccc(Cl)c(Cl)c1Cl)N1CCOCC1 [CBK034472],101.662
O=C1C=C(c2ccc([N+](=O)[O-])cc2)Nc2nonc2N1 [CBK261487],108.809
Cc1cn2nc(N3CCN(S(=O)(=O)c4ccccc4[N+](=O)[O-])CC3)sc2n1 [CBK298288],103.709
Cn1c(CSCc2ccccc2)nnc1SCC(=O)c1ccc(Br)cc1 [CBK266565],140.932
Cc1ccc(C2CCCN2C(=O)c2ccc(=O)n(CC(=O)Nc3ccc(F)cc3)c2)cc1C (stereo not shown) [CBK286088],99.0435
Cc1ccc2[nH]c(C3CCCCN3C(=O)c3cscn3)nc2c1 (stereo not shown) [CBK283999],89.0479
COCCNc1nccnc1-c1cnc(OC)nc1OC [CBK088558],102.127
Cc1ccc(C2(O)CCN(Cc3cn(C)nc3C)CC2)cc1 [CBK282753],106.409
COc1ccccc1-c1nc2ccccn2c1CO [CBK173210],106.736
Cn1c(=O)c2c(ncn2Cc2ccc(C#N)cc2)n(C)c1=O [CBK134217],77.8198
O=S(=O)(Nc1cccc(Cl)c1)c1ccc(OC(F)(F)F)cc1 [CBK044769],72.6764
O=[N+]([O-])c1ccc(O)c(C(C#Cc2ccccc2)N2CCOCC2)c1 (stereo not shown) [CBK262741],124.272
COCCNC(=O)c1sc2ncn(CC(=O)Nc3ccccc3OC)c(=O)c2c1C [CBK071846],115.521

Next compounds

Compound	% of control remaining [%]
Cc1cccc(CNCC2CCN(C(=O)OC(C)(C)C)CC2)n1 [CBK056713]	81.6248
Nc1nc(N)nc(-c2ccc(-c3nc(N)nc(N)n3)cc2)n1 [CBK261494]	93.0698
Cc1sc2ncnc(NCCOCCO)c2c1C [CBK265907]	177.004
O=S(=O)(c1ccc(F)cc1)N1CCCC1c1cccc(Cc2ccc(F)cc2)n1 (stereo not shown) [CBK286249]	96.7859
O=[N+]([O-])c1c(N2CCN(CCO)CC2)ccc2nonc12 [CBK264397]	107.772
N#CCCn1cc(C(=O)N2CCCCC2)c(-c2cc3ccccc3o2)n1 [CBK306206]	150.64
Cn1cc(CCNC(=O)NC2CCN(c3ncccn3)CC2)cn1 [CBK305612]	108.693
COc1cc(NC(=O)CCN2CCN(C)CC2)cc(OC)c1 [CBK264193]	100
Cc1ccc(-n2c3c(cc(C(=O)NCCCN4CCOCC4)c2=O)C(=O)CCC3)cc1 [CBK266094]	156.031
CCc1nnc(NC(=O)c2cccc(F)c2)s1 [CBK273362]	126.592
Cc1cc(CNC(=O)N(C)C2CCN(C)C2)no1 (stereo not shown) [CBK155992]	107.545
COc1ccc([C@@]23CC[C@@H](NC(=O)Nc4cccc(Cl)c4)C[C@@H]2CN(C)C3)cc1OC [CBK081375T]	118.818
Cc1cc(-c2cnoc2C2CCCN(C(=O)c3cccs3)C2)on1 (stereo not shown) [CBK284480]	82.0694
CC(NC(=O)c1nn(-c2ccc(F)cc2)c2c1CCCC2)c1ccc2c(c1)OCCO2 (stereo not shown) [CBK296682]	77.033
COc1ccccc1-c1ccc(CC2(C(=O)NCC3CCCCC3)CCOCC2)cc1 [CBK286519]	101.647
O=C(O)CCNS(=O)(=O)c1ccc(I)cc1 [CBK268968]	110.582
CCC(=O)NC(N(Cc1ccccc1)Cc1ccccc1)C(Cl)(Cl)Cl (stereo not shown) [CBK261022]	76.337
OCc1cccc2c3c(n(Cc4ccccc4)c12)CCCC3 [CBK004693]	87.646
Cc1nc2ccccc2n1CC(O)COc1ccccc1 (stereo not shown) [CBK288084]	103.539
OCCc1ccc(Nc2cc(-c3ccco3)ncn2)cc1 [CBK090771]	174.383
NC(=O)c1ccccc1NC(=O)CN1CCN(Cc2cccc(F)c2)CC1 [CBK270292]	148.121
O[C@H](CNCc1ccccc1)COc1cccc2c1C1CCC2CC1 [CBK000370]	141.355
CCNc1cc2ccccc2c(-c2ccc3c(c2)OCCCO3)n1 [CBK089641]	134.97
FC(F)(F)Oc1cccc(-c2cncc(NCc3cccs3)n2)c1 [CBK065909]	127.39
N#Cc1ccccc1CSc1nc2ccc([N+](=O)[O-])cc2[nH]1 [CBK269589]	145.587
NS(=O)(=O)c1ccc2nc(NC(=O)c3ccc(N4C(=O)CCC4=O)cc3)sc2c1 [CBK291192]	73.6595
